Results as given in PubChem BioAssay AID1487 (National Center for Advancing Translational Sciences (NCATS), 2009).
This is one part of the list. The main result of the screen is listed elsewhere. These columns were measured beside it and carry no call. The list favours compounds with an active or inconclusive main result. The note in brackets gives the kind of curve behind each potency; many fits are weak.

Experiment: qHTS Assay for Modulators of Lamin A Splicing
Settings: HeLa LMNA splicing GFP/RFP minigene ratio, 48 h
How it was run: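 S3 HeLa cells stably expressing lamin A-EGFP splicing minigene plus DsRed2, 600 cells/well, 48 h compound exposure at 37C. Laser-scanning cytometry; analysed as GFP (500-530 nm)/RFP (575-640 nm) total intensity ratio; 0.5% DMSO vehicle.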

[1] = measured here: GFP splicing reporter channel
[2] = measured here: RFP viability control channel

Structure (SMILES) | AC50 [1] | AC50 [2]
O=S(=O)(NCc1ccc2c(c1)OCO2)c1cccc2cccnc12 | 11.2 µM [rising, partial curve] | 11.2 µM [rising, single point]
CCOc1ccccc1Nc1ncccc1C(=O)N1CCCC1 | 3.55 µM [rising, full curve, poor fit] | 8.91 µM [rising, partial curve]
Brc1cccc2sc(N3CCN(c4ccccc4)CC3)nc12 | 14.1 µM [falling, single point] | 
O=C(Nc1nccs1)c1cccc(N2C(=O)C3C4C=CC(C4)C3C2=O)c1 (stereo not drawn) | 3.98 µM [rising, partial curve] | 0.631 µM [rising, full curve, poor fit]
Cc1ccc(NC(=O)N2CCC(NC(=O)C(C)(C)C)CC2)cc1 | 0.00316 µM [falling, full curve, poor fit] | 0.00631 µM [falling, full curve, poor fit]
CNC(=S)N(CCc1c(C)[nH]c2ccc(Cl)cc12)Cc1cccs1 | 31.6 µM [rising, single point] | 20 µM [rising, single point]
CCOc1ccc(-c2cc(CCCC(=O)Nc3cccc(OC)c3)no2)cc1 |  | 3.16 µM [rising, full curve, poor fit]
CCOc1ccc(CCNC(=O)CSc2cc(=O)n(C)c3ccccc23)cc1OCC |  | 0.447 µM [rising, full curve, poor fit]
COc1ccccc1-c1cc(Nc2ccc(F)cc2)ncn1 | 22.4 µM [falling, single point] | 22.4 µM [falling, single point]
CN(c1ccccc1)S(=O)(=O)c1ccc(NC(=O)c2ccccc2)cc1 |  | 35.5 µM [rising, single point]
CC(=O)O[C@@]1(C(C)=O)CCC2C3CC(C)C4=CC(=O)CC[C@@]4(C)C3CC[C@]21C (stereo partly drawn) | 11.2 µM [rising, partial curve, poor fit] | 11.2 µM [rising, single point]
CC(=O)c1c(C)[nH]c(C(=O)OCC(=O)Nc2cc(Cl)ccc2[N+](=O)[O-])c1C |  | 5.01 µM [rising, single point]
Cc1cc(Oc2ccccc2F)nc(NCc2ccccc2)n1 |  | 25.1 µM [rising, single point]
COc1ccccc1-n1cnc2c(c1=O)c1nc3ccccc3nc1n2CCc1ccccc1 |  | 2 µM [falling, partial curve]
NCCCCNS(=O)(=O)c1cccc2c(Cl)cccc12 |  | 0.00447 µM [falling, full curve, poor fit]
Cc1cc2c(ncn2Cc2ccccc2)c(N)c1C |  | 6.31 µM [falling, partial curve, poor fit]
O=C(CNCc1ccc(Cl)cc1)Nc1ccc2c(c1)OCCO2 | 2.51 µM [rising, single point] | 
O=C1CC(C(=O)Nc2ccc(F)cc2)n2cnnc2N1 (stereo not drawn) |  | 0.158 µM [rising, full curve, poor fit]
CCOC(=O)c1c(C)[nH]c(C)c1C(=O)COC(=O)c1cc2ccccc2cc1O |  | 15.8 µM [rising, single point]
CCOc1ccccc1NC(=O)C1CCCN(S(=O)(=O)c2ccc(OC)c(C)c2)C1 (stereo not drawn) | 20 µM [rising, single point] | 31.6 µM [rising, single point]
COc1ccc(NC(=O)CCN2CCN(S(=O)(=O)c3ccc(C(C)C)cc3)CC2)cc1 |  | 31.6 µM [rising, single point]
Nc1ncnc2c1c(-c1ccc(Oc3ccccc3)cc1)cn2C1CCCC1 | 12.6 µM [falling, partial curve] | 12.6 µM [falling, partial curve]
CCC(=O)Oc1c(C(=O)CC)cc2c(C)cc(=O)oc2c1C |  | 2.82 µM [rising, single point]
COc1ccc(-c2nc3ccccc3nc2-c2ccccc2)cc1 | 35.5 µM [falling, single point] | 35.5 µM [falling, single point]
Brc1ccc(Oc2ncc(CN3CCN(c4ccccc4)CC3)s2)cc1 |  | 15.8 µM [rising, single point]
CCc1cccc2c(C(=O)COC(=O)/C=C/c3ccc(O)c(OC)c3)c[nH]c12 |  | 35.5 µM [rising, single point]
Cc1ccc(S(=O)(=O)N2CCCN(S(=O)(=O)c3ccc4ccccc4c3)CC2)cc1 | 31.6 µM [rising, single point] | 35.5 µM [rising, single point]

Structure (SMILES) | AC50 [1] | AC50 [2]
CN(/N=C\c1ccc(O)c(O)c1)c1nc(-c2ccccc2)cc(-c2ccccc2)n1 | 22.4 µM [falling, partial curve, poor fit] | 20 µM [falling, partial curve, poor fit]
COc1ccc(C(=O)Nc2sc(C)c(C)c2CN2CCOCC2)cc1 | 14.1 µM [rising, single point] | 15.8 µM [rising, partial curve]
COc1ccc(N2CCN(c3cc(C)c4ccccc4n3)CC2)cc1 | 11.2 µM [falling, partial curve, poor fit] | 
Cc1ccc2[nH]c(CSc3nnc(NC(=O)COc4ccccc4F)s3)cc(=O)c2c1 | 14.1 µM [falling, partial curve, poor fit] | 
COc1ccc(Sc2nnc(Cc3ccccc3)c3ccccc23)cc1 |  | 31.6 µM [falling, single point]
Cc1c(C(=O)OCCOc2ccccc2)[nH]c2c1C(=O)CCC2 | 17.8 µM [rising, partial curve] | 15.8 µM [rising, single point]
Cc1ccc(S(=O)(=O)NNC(=O)c2cccc(O)c2)cc1 | 5.62 µM [falling, full curve, poor fit] | 
CC(=O)N1CCN(CCN=CC2=C(O)CC(c3ccc(Cl)cc3)CC2=O)CC1 (stereo not drawn) |  | 0.00447 µM [rising, full curve, poor fit]
Cc1ccccc1NC(=O)C1C2CCC(O2)C1C(=O)O (stereo not drawn) | 35.5 µM [rising, single point] | 35.5 µM [rising, single point]
C=CCn1cc(C(=O)OC)c(=O)c2cc(S(=O)(=O)N3CCC(C)CC3)ccc21 | 7.94 µM [rising, single point] | 22.4 µM [rising, single point]
O=C(Nc1cccc(S(=O)(=O)N2CCCC2)c1)c1ccc2c(=O)n3c(nc2c1)CCCCC3 | 1 µM [rising, full curve] | 2.51 µM [rising, full curve]
COc1ccc(-n2cc(CNCCCn3ccnc3)c(-c3ccccc3Cl)n2)cc1 | 1.41 µM [falling, full curve, poor fit] | 
COc1ccc(N2CCN(C(=S)Nc3ccc(C)cc3)CC2)cc1 |  | 22.4 µM [falling, single point]
COc1cccc(-c2nc(SCc3cc(=O)c4cc(Cl)ccc4[nH]3)n[nH]2)c1 | 0.631 µM [rising, full curve, poor fit] | 35.5 µM [rising, partial curve, poor fit]
O=C(NCCc1ccc(Cl)cc1)c1ccc2nc(Cc3ccccc3)oc2c1 |  | 10 µM [rising, partial curve, poor fit]
CC1(C)NC(=O)N(CCCCOc2ccc3c(c2)CCC3)C1=O | 35.5 µM [rising, single point] | 35.5 µM [rising, single point]
COc1ccc(C(=O)/C(=C/c2cccs2)c2nc3ccccc3o2)cc1 |  | 22.4 µM [rising, single point]
CCc1ccc(CN(Cc2ccco2)C(=O)c2cc(-c3ccc(Cl)cc3)on2)cc1 | 0.794 µM [rising, full curve, poor fit] | 
COc1ccc(NC2=C(C)C(=O)CC2)cc1 |  | 31.6 µM [rising, single point]
O=C(Nc1ccncc1)C1(c2ccccc2)CCCC1 | 12.6 µM [rising, single point] | 20 µM [rising, single point]
CCOc1ncccc1C(=O)OCC(=O)Nc1cc(S(=O)(=O)N2CCOCC2)ccc1C | 1 µM [rising, partial curve, poor fit] | 
Cc1ccc(Cl)cc1NC(=O)NC1COc2ccccc2C1 (stereo not drawn) | 6.31 µM [falling, single point] | 4.47 µM [falling, full curve, poor fit]
O=C(Nc1nnc(CSCc2ccc(F)cc2)s1)c1ccc([N+](=O)[O-])cc1 | 3.98 µM [rising, full curve, poor fit] | 3.55 µM [rising, partial curve]
COc1ccc2nc(SCC(=O)N(C)C3CCCCC3)c(C#N)cc2c1 |  | 11.2 µM [rising, single point]
CCOC(=O)C1=C(C)Nc2sc(C(=O)c3ccc(F)cc3)c(N)c2C1c1ccc(C(=O)OC)cc1 (stereo not drawn) | 12.6 µM [rising, partial curve, poor fit] | 12.6 µM [rising, partial curve, poor fit]
Fc1cccc(F)c1/C=N/NC(=S)Nc1cccnc1 | 0.316 µM [rising, partial curve, poor fit] | 15.8 µM [rising, partial curve]
Cc1cc(=O)[nH]c2nnc(SCc3cccc(C(F)(F)F)c3)n12 | 0.0126 µM [rising, full curve, poor fit] | 

For reference, some entries already given:
Structure (SMILES) | AC50 [1] | AC50 [2]
CC(=O)N1CCN(CCN=CC2=C(O)CC(c3ccc(Cl)cc3)CC2=O)CC1 (stereo not drawn) |  | 0.00447 µM [rising, full curve, poor fit]
Cc1ccccc1NC(=O)C1C2CCC(O2)C1C(=O)O (stereo not drawn) | 35.5 µM [rising, single point] | 35.5 µM [rising, single point]
C=CCn1cc(C(=O)OC)c(=O)c2cc(S(=O)(=O)N3CCC(C)CC3)ccc21 | 7.94 µM [rising, single point] | 22.4 µM [rising, single point]
O=C(Nc1cccc(S(=O)(=O)N2CCCC2)c1)c1ccc2c(=O)n3c(nc2c1)CCCCC3 | 1 µM [rising, full curve] | 2.51 µM [rising, full curve]
COc1ccc(-n2cc(CNCCCn3ccnc3)c(-c3ccccc3Cl)n2)cc1 | 1.41 µM [falling, full curve, poor fit] | 
COc1ccc(N2CCN(C(=S)Nc3ccc(C)cc3)CC2)cc1 |  | 22.4 µM [falling, single point]
COc1cccc(-c2nc(SCc3cc(=O)c4cc(Cl)ccc4[nH]3)n[nH]2)c1 | 0.631 µM [rising, full curve, poor fit] | 35.5 µM [rising, partial curve, poor fit]
O=C(NCCc1ccc(Cl)cc1)c1ccc2nc(Cc3ccccc3)oc2c1 |  | 10 µM [rising, partial curve, poor fit]
CC1(C)NC(=O)N(CCCCOc2ccc3c(c2)CCC3)C1=O | 35.5 µM [rising, single point] | 35.5 µM [rising, single point]
COc1ccc(C(=O)/C(=C/c2cccs2)c2nc3ccccc3o2)cc1 |  | 22.4 µM [rising, single point]
CCc1ccc(CN(Cc2ccco2)C(=O)c2cc(-c3ccc(Cl)cc3)on2)cc1 | 0.794 µM [rising, full curve, poor fit] | 
COc1ccc(NC2=C(C)C(=O)CC2)cc1 |  | 31.6 µM [rising, single point]
O=C(Nc1ccncc1)C1(c2ccccc2)CCCC1 | 12.6 µM [rising, single point] | 20 µM [rising, single point]
CCOc1ncccc1C(=O)OCC(=O)Nc1cc(S(=O)(=O)N2CCOCC2)ccc1C | 1 µM [rising, partial curve, poor fit] | 
Cc1ccc(Cl)cc1NC(=O)NC1COc2ccccc2C1 (stereo not drawn) | 6.31 µM [falling, single point] | 4.47 µM [falling, full curve, poor fit]
O=C(Nc1nnc(CSCc2ccc(F)cc2)s1)c1ccc([N+](=O)[O-])cc1 | 3.98 µM [rising, full curve, poor fit] | 3.55 µM [rising, partial curve]
COc1ccc2nc(SCC(=O)N(C)C3CCCCC3)c(C#N)cc2c1 |  | 11.2 µM [rising, single point]
